From publication PMC3914983

Molecular target: T1, NADPH oxidase 5 (HA-Nox5, Nox5β) (UniProt Q96PH1)
T1 sequence: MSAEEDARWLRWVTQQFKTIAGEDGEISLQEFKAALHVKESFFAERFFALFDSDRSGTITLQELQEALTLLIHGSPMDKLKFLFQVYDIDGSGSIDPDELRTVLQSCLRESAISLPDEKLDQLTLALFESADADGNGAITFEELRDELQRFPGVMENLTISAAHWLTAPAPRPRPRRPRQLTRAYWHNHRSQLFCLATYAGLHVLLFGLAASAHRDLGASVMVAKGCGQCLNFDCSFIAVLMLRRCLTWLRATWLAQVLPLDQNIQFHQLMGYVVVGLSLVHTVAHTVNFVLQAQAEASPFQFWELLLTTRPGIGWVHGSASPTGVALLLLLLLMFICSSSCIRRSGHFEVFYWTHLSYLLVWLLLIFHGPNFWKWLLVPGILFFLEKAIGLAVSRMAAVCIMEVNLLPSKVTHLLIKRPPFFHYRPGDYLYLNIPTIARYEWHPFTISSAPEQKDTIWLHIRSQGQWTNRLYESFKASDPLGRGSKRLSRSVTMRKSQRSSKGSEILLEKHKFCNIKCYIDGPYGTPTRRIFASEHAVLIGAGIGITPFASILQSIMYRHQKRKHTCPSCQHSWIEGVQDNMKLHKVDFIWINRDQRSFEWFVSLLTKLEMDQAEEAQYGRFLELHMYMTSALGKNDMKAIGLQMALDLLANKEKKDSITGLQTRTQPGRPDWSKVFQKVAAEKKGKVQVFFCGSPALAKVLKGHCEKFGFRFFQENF
Test: co-IP; COS-7 cells expressing HA-Nox5 lysed in 20 mM Tris-HCl pH 7.4, 1% Triton X-100, 100 mM NaCl; soluble extracts incubated 2 h at 4°C with anti-HA or control mouse IgG, precipitated with protein A/G agarose; immune complexes blotted for HA-Nox5 and PKCα

binding: binds
Substance: Protein kinase C alpha (PKCα) (enzyme)

Results are given in words; binding and its absence hold for the method and conditions named. In cells and extracts the contact can be indirect. Binding can be weak; no strength is given. Tags and fused reporters may be left off the sequences shown.
